PubChem BioAssay AID1259308, NCATS, 2017

Aim: 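Genes whose loss raises luciferase production in HEK293 cells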 (primary screen)
System: human HEK293 embryonic kidney cells stably expressing firefly luciferase (HEK-CMV-Luc2-Hygro)
Knock-down reagent: single siRNA against human genes, 0.8 pmol siRNA per well
Timing: 72 h
Measured: 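Luciferase light (ONE-Glo) measured on one replicate plate set and viability (CellTiter-Glo) on the other, scaled to a negative control siRNA, with robust z-scores and luciferase per cell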
Direction: total luciferase, z-score and total luciferase, % of control: higher = more reporter protein produced
Hit rule: 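An siRNA counts as active if its total luciferase robust z-score exceeds 3; genes with two or more such siRNAs out of three were retested with fresh siRNAs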
Meaning of the calls: active = raised luciferase; inactive = no rise
In all, the deposit lists about 59,000 reagents; this is a part drawn at random. Of all reagents, about 1,510 (2.6%) are marked active. 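Calls use total luciferase alone and ignore viability, so some active siRNAs may act by altering cell number.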 Unmarked entries are inactive. Reagents against one gene are numbered here. Further read-outs or replicates are left out here.

KPTN #1
- total luciferase, z-score: 0.835
- total luciferase, % of control: 98.5

KPTN #2
- total luciferase, z-score: -0.664
- total luciferase, % of control: 68.7

KPTN #3
- total luciferase, z-score: -0.664
- total luciferase, % of control: 68.7

LY6H #1
- total luciferase, z-score: 0.189
- total luciferase, % of control: 85.6

LY6H #2
- total luciferase, z-score: 0.316
- total luciferase, % of control: 88.2

LY6H #3
- total luciferase, z-score: 0.619
- total luciferase, % of control: 94.2

BDP1 #1
- total luciferase, z-score: -1.69
- total luciferase, % of control: 48.4

BDP1 #2
- total luciferase, z-score: -2.68
- total luciferase, % of control: 28.6

BDP1 #3
- total luciferase, z-score: 0.0239
- total luciferase, % of control: 82.4

TMEM97 #1
- total luciferase, z-score: -0.644
- total luciferase, % of control: 69.1

TMEM97 #2
- total luciferase, z-score: -0.0171
- total luciferase, % of control: 81.5

TMEM97 #3
- total luciferase, z-score: -0.533
- total luciferase, % of control: 71.3

RBFOX2 #1
- total luciferase, z-score: -2.36
- total luciferase, % of control: 35

RBFOX2 #2
- total luciferase, z-score: -1.44
- total luciferase, % of control: 53.3

RBFOX2 #3
- total luciferase, z-score: 0.917
- total luciferase, % of control: 100

KMT2A #1
- total luciferase, z-score: -1.6
- total luciferase, % of control: 50.2

KMT2A #2
- total luciferase, z-score: -0.723
- total luciferase, % of control: 67.5

KMT2A #3
- total luciferase, z-score: 0.497
- total luciferase, % of control: 91.8

TRNT1 #1
- total luciferase, z-score: 0.0885
- total luciferase, % of control: 83.6

TRNT1 #2
- total luciferase, z-score: 0.665
- total luciferase, % of control: 95.1

TRNT1 #3
- total luciferase, z-score: 1.97
- total luciferase, % of control: 121

FANCC #1
- total luciferase, z-score: 2.55
- total luciferase, % of control: 133

FANCC #2
- total luciferase, z-score: 0.447
- total luciferase, % of control: 90.8

FANCC #3
- total luciferase, z-score: 0.361
- total luciferase, % of control: 89.1

EMC3 #1
- total luciferase, z-score: -0.586
- total luciferase, % of control: 70.2

EMC3 #2
- total luciferase, z-score: -0.821
- total luciferase, % of control: 65.6

EMC3 #3
- total luciferase, z-score: -1.25
- total luciferase, % of control: 57

BCHE #1
- total luciferase, z-score: -0.405
- total luciferase, % of control: 73.8

BCHE #2
- total luciferase, z-score: 1.23
- total luciferase, % of control: 106

BCHE #3
- total luciferase, z-score: -0.452
- total luciferase, % of control: 72.9

LCE1B #1
- total luciferase, z-score: 0.142
- total luciferase, % of control: 84.7

LCE1B #2
- total luciferase, z-score: 4.43 (active)
- total luciferase, % of control: 170

LCE1B #3
- total luciferase, z-score: -0.16
- total luciferase, % of control: 78.7

4 entries already listed, sorted by “total luciferase, z-score”, highest first.
KMT2A #3
- total luciferase, z-score: 0.497
- total luciferase, % of control: 91.8

TRNT1 #1
- total luciferase, z-score: 0.0885
- total luciferase, % of control: 83.6

KMT2A #2
- total luciferase, z-score: -0.723
- total luciferase, % of control: 67.5

KMT2A #1
- total luciferase, z-score: -1.6
- total luciferase, % of control: 50.2
